# Measured values as given in PMC7862700.
# Protein sequences, listed by entry. Tags and fused reporters are not part of them. Lines headed by an entry give the natural chain unless they say otherwise; changes in a name come on top.
# UniProt P41161: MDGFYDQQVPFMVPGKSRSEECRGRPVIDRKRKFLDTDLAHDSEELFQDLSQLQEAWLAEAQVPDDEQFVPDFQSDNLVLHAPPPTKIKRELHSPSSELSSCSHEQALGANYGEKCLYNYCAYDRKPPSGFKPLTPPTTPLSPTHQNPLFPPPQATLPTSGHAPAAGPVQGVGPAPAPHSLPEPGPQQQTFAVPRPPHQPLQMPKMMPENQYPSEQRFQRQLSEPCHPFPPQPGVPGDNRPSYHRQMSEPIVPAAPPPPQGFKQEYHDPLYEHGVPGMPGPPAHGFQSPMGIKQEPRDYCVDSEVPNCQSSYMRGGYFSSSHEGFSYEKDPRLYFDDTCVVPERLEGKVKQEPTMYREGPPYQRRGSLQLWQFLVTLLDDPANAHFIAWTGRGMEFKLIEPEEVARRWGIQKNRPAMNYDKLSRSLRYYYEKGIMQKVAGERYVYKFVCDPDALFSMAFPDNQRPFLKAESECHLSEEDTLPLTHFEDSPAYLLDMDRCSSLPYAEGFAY
# UniProt Q99607: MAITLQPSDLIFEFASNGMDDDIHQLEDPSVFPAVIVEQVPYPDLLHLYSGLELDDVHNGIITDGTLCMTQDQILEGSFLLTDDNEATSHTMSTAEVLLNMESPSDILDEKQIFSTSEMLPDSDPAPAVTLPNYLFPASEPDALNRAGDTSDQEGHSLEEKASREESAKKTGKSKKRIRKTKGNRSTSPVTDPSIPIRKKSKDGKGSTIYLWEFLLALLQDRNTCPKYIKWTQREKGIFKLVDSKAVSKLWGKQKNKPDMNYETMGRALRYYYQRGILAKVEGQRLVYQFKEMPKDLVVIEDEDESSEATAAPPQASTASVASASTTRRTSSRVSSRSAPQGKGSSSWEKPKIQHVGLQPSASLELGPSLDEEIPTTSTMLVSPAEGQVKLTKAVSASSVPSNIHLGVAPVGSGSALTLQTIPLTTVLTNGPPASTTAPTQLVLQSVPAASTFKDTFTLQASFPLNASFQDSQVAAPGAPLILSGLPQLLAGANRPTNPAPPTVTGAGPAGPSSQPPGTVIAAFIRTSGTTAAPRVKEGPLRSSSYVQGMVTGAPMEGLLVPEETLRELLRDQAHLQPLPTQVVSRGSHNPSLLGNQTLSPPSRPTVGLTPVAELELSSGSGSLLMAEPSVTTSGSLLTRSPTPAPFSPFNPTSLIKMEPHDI
# UniProt Q01892: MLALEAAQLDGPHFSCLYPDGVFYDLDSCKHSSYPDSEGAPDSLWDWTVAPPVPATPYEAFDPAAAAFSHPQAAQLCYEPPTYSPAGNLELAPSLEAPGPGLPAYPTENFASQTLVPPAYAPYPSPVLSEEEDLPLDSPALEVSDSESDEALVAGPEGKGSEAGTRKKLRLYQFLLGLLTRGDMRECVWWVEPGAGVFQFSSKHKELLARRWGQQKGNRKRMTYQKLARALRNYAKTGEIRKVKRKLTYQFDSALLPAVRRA
# This is a selection; strong and weak results do not stand in their true shares. At the low end of the ranking the order means little.
# How the values were obtained:
# Assay in all cases: DAPPL (digital affinity profiling via proximity ligation, sequencing)
# Conditions in all cases: 10 mM Tris-HCl pH 7.5, 50 mM NaCl, 1 mM DTT, 4% glycerol, room temperature, 30 min; GST-TFs on glutathione beads, 16-mer random dsDNA library, 0.1% …; high values mean tight binding; double strand, one strand shown; scale: fold enrichment (6-mer frequency, TF over GST control)
# FLI1 = target: T1, FLI1 (UniProt Q01543)
# T1 sequence: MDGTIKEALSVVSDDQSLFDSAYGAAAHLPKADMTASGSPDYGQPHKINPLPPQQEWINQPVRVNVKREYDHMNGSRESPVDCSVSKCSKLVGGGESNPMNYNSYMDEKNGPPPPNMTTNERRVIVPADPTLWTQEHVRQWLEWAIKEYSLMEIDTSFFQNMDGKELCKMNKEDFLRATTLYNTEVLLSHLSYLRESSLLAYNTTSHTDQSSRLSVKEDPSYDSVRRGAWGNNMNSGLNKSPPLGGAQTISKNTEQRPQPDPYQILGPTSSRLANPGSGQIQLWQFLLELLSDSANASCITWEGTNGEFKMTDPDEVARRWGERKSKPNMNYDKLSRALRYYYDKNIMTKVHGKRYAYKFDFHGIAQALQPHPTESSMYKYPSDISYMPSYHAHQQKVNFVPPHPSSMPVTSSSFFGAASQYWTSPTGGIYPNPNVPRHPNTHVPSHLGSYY
# EHF = target: T2, EHF (UniProt Q9NZC4)
# T2 sequence: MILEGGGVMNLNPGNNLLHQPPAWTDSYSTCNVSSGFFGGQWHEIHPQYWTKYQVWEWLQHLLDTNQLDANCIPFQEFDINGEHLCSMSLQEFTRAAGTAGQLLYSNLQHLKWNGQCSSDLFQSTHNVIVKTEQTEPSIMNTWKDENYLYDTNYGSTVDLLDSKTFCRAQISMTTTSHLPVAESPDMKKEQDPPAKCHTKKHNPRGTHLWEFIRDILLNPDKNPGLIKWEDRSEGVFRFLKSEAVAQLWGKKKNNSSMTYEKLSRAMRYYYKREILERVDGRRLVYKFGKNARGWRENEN
# ETV5 = ETV5 (UniProt P41161)
# ELF4 = ELF4 (UniProt Q99607)
# ETV3L = target: T3, ETV3L (UniProt Q6ZN32)
# T3 sequence: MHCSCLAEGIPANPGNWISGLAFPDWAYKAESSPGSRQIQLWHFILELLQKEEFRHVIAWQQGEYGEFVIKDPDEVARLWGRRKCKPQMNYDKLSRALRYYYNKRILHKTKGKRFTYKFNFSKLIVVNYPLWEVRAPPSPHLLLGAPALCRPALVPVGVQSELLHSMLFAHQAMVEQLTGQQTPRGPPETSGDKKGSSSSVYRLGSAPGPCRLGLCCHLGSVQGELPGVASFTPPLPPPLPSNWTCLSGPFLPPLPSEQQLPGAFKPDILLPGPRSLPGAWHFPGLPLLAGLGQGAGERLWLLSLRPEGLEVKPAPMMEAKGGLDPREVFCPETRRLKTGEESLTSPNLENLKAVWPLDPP
# SPIB = SPIB (UniProt Q01892)
Sequence,binding signal (FLI1),binding signal (EHF),binding signal (ETV5),binding signal (ELF4),binding signal (ETV3L),binding signal (SPIB)
TGAAGG,0.913,0.932,0.919,0.913,0.972,
GATAAC,0.98,0.955,0.934,0.969,0.962,0.964
GTGCGC,1.02,1,0.953,0.967,0.904,0.961
GTTCGT,0.922,0.931,0.972,0.954,0.982,0.949
GACCCA,0.915,0.894,0.897,0.911,0.901,0.882
CGAAGT,0.958,0.924,0.906,0.954,0.883,0.941
AGGCTA,0.922,0.883,0.972,0.901,0.851,0.906
AGCCCA,0.932,0.934,0.99,1,0.885,0.965
ACGCGA,0.89,0.832,0.821,0.867,0.903,0.818
CAAGCC,0.931,0.948,0.98,0.985,0.942,0.946
GAATAG,0.877,0.952,0.864,0.949,0.993,0.953
CATCGT,0.892,,0.926,0.962,0.931,
GTGCCG,0.839,0.886,0.886,0.959,0.907,0.834
CAAACG,0.996,0.957,0.973,0.961,0.914,0.962
CGCAAT,0.885,0.964,0.961,0.903,0.91,0.897
ACGTCT,1.13,1.13,1.12,1.28,1.29,
CGAGAT,0.849,0.917,0.86,0.909,0.848,0.877
AGGGTT,0.953,0.947,0.973,1.03,0.912,0.974
TTTCAT,1.11,,1.09,1.2,1.15,

# An excerpt of these results, as tab-separated lines.
Sequence	binding signal (FLI1)	binding signal (EHF)	binding signal (ETV5)	binding signal (ELF4)	binding signal (ETV3L)	binding signal (SPIB)
CAAGCC	0.931	0.948	0.98	0.985	0.942	0.946
TTTCAT	1.11		1.09	1.2	1.15	

# (continued)

Sequence,binding signal (FLI1),binding signal (EHF),binding signal (ETV5),binding signal (ELF4),binding signal (ETV3L),binding signal (SPIB)
GTCTGG,0.82,0.848,0.904,0.795,0.806,0.925
GTATCG,0.951,0.926,0.879,0.903,0.786,0.917
CGCAAA,0.986,,0.953,0.971,0.941,
ACTGGG,0.907,0.848,0.817,0.84,0.833,0.816
AGATCA,0.809,0.92,0.827,0.854,0.88,0.841
AGTAAC,1.02,,1.03,0.974,0.978,
GTGTCT,0.998,1.06,0.989,1.02,,1.03
TAATTC,1.5,,1.44,1.48,,1.51
TGGGCG,0.84,0.928,0.84,0.948,0.898,0.869
TAGGCA,0.994,0.959,0.966,1.01,1.02,1.02
TTTAGA,0.976,0.995,0.894,0.941,0.964,0.993
AGGTCC,0.995,,0.948,0.907,1.03,0.957
CAGTAT,0.889,0.959,0.936,0.987,,0.981
GCCTGG,0.98,0.966,0.948,0.884,,
CGACAA,1.17,1.24,1.24,1.18,,
TTCAGA,0.899,0.933,0.883,0.967,0.99,0.899
AGAATA,0.983,0.938,0.993,1.06,,0.972
AAGGTC,0.959,,0.998,0.996,0.938,0.997
TCAGTA,0.908,0.979,0.972,0.994,0.979,0.888

Sequence,binding signal (FLI1),binding signal (EHF),binding signal (ETV5),binding signal (ELF4),binding signal (ETV3L),binding signal (SPIB)
GTGCCT,0.949,0.914,1.07,0.993,,
TGGTCG,0.952,0.982,1.06,0.991,,
CGACAG,0.956,0.903,0.928,0.943,0.986,0.877
GTGTTA,0.997,0.912,0.98,0.969,0.997,0.935
AGAATG,0.938,,0.941,0.952,0.987,0.901
GATGGA,0.877,0.883,0.882,0.869,0.863,0.935
TACCTG,1.13,,1.19,1.14,1.09,1.25
TCGTCG,0.966,0.893,0.929,0.919,0.872,0.919
CGCGAA,0.958,0.986,0.968,0.986,0.994,0.96
AGCCAC,0.974,,1.01,0.984,0.956,0.944
ATCACG,0.97,,0.998,0.96,0.996,0.925
ATAGGG,0.955,,1.03,0.904,0.972,0.993
GCGACG,0.943,0.894,0.861,0.947,0.94,0.965
CCATAG,0.873,0.992,0.955,0.889,0.94,0.986
CGGACC,0.799,0.791,0.838,0.804,0.867,0.781
CAAAAG,0.969,,0.971,0.996,0.958,0.989
AGTATA,0.972,0.99,0.976,0.998,,0.972
AATCCG,1.53,,1.65,1.46,,1.68
ATCAAG,0.932,0.998,0.945,0.934,,0.896
